Results are given in words; binding and its absence hold for the method and conditions named. In cells and extracts the contact can be indirect. Some binding calls cover weakened binding; strength is not graded here.
Molecular target: β-catenin (human (endogenous in Hep3B)) (UniProt P35222)
Experiment: co-IP; Hep3B lysates (stable lines with pCMV6-A-GFP or pCMV6-A-GFP-MEG3; in Fig. 9E also MEG3 plus pGFP-V-RS-PTEN knock-down); 50 mM Tris-HCl pH 7.6, 150 mM NaCl, 1% NP40, 0.1 mM EDTA, 1.0 mM DTT; 2 µg antibody, protein G/A-plus agarose beads, 4 °C; normal IgG as negative control; Western blotting

By UniProt entry, the sequences of proteins in these tests, tags left out.
UniProt P35222: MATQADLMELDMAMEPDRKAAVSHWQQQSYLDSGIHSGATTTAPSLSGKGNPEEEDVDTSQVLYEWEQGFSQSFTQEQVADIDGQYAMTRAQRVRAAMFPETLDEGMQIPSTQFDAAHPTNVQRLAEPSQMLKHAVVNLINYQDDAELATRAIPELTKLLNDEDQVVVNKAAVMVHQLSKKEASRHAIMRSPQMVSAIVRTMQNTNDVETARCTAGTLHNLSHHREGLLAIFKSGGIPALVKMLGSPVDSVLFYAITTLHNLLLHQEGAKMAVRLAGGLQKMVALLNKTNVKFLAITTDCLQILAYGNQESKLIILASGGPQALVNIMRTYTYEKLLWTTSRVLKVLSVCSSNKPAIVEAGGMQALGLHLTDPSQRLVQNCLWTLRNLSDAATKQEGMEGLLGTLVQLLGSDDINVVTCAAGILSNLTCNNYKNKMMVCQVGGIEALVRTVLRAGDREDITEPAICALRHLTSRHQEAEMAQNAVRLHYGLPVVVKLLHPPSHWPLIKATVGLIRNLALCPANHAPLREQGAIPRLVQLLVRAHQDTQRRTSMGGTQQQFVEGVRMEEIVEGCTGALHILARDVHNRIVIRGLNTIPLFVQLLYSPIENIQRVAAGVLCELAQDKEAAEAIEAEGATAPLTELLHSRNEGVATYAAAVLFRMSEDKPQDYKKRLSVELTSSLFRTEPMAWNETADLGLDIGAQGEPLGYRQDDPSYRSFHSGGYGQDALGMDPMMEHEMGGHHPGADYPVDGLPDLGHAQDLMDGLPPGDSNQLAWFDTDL
UniProt Q9UJU2: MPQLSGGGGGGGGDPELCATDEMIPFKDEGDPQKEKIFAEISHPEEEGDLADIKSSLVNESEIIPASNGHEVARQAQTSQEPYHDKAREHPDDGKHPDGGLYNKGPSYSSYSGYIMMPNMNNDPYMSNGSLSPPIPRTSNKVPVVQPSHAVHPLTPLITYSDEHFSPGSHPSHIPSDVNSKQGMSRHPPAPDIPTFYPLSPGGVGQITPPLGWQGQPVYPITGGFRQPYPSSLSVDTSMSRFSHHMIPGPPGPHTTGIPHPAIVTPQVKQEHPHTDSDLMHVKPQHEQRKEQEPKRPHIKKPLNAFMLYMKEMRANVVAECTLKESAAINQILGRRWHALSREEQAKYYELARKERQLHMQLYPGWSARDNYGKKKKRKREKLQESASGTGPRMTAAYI

binding: binds
Substance: LEF (from UniProt Q9UJU2 1-399)

— paper PMC5833746
